The list shows a part of the results.
What was measured:
Assay in all cases: glycan array binding signal (z-score within array); higher = stronger binding
Conditions in all cases: glycan notation: IUPAC condensed, linker removed
Fuc(a1-2)Gal = molecular target: Fuc(a1-2)Gal
How it was run: (§1)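 Glycan array data came from 3228 arrays in the Consortium for Functional Glycomics database, and only arrays with an available protein sequence were kept. Glycan names were put into IUPAC-condensed notation, and columns mapping to the same glycan were averaged. The binding signal is a within-array Z-score, averaged across arrays of one protein sequence run at different concentrations or buffers and across linkers. A negative Z-score can be read as non-binding.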

Fuc(a1-2)Gal(b1-3)GalNAc = molecular target: Fuc(a1-2)Gal(b1-3)GalNAc
How it was run: as §1

[1] = molecular target: Fuc(a1-2)Gal(b1-3)GalNAc(b1-3)Gal
How it was run: as §1

[2] = molecular target: Fuc(a1-2)Gal(b1-3)GalNAc(b1-3)Gal(a1-4)Gal(b1-4)Glc
How it was run: as §1

[3] = molecular target: Fuc(a1-2)Gal(b1-3)GalNAc(b1-3)Gal(b1-4)Glc
How it was run: as §1

[4] = molecular target: Fuc(a1-2)Gal(b1-3)GalNAc(b1-4)[Neu5Ac(a2-3)]Gal(b1-4)Glc
How it was run: as §1

[5] = molecular target: Fuc(a1-2)Gal(b1-3)[Fuc(a1-4)]GlcNAc
How it was run: as §1

Fuc(a1-2)Gal(b1-4)Glc = molecular target: Fuc(a1-2)Gal(b1-4)Glc
How it was run: as §1

Fuc(a1-2)Gal(b1-4)Glc6S = molecular target: Fuc(a1-2)Gal(b1-4)Glc6S
How it was run: as §1

Fuc(a1-2)Gal(b1-4)GlcNAc = molecular target: Fuc(a1-2)Gal(b1-4)GlcNAc
How it was run: as §1

[6] = molecular target: Fuc(a1-2)Gal(b1-4)GlcNAc(b1-3)Gal(b1-4)GlcNAc
How it was run: as §1

[7] = molecular target: Fuc(a1-2)Gal(b1-4)GlcNAc(b1-3)Gal(b1-4)GlcNAc(b1-3)Gal(b1-4)GlcNAc
How it was run: as §1

[8] = molecular target: Fuc(a1-2)Gal(b1-4)GlcNAc6S
How it was run: as §1

[9] = molecular target: Fuc(a1-2)Gal(b1-4)[Fuc(a1-3)]GalNAc(b1-3)Gal(b1-4)[Fuc(a1-3)]GlcNAc
How it was run: as §1

[10] = molecular target: Fuc(a1-2)Gal(b1-4)[Fuc(a1-3)]GalNAc(b1-3)Gal(b1-4)[Fuc(a1-3)]GlcNAc(b1-3)Gal(b1-4)[Fuc(a1-3)]GalNAc
How it was run: as §1

[11] = molecular target: Fuc(a1-2)Gal(b1-4)[Fuc(a1-3)]GlcNAc
How it was run: as §1

Fuc(a1-2)Gal6S(b1-4)Glc = molecular target: Fuc(a1-2)Gal6S(b1-4)Glc
How it was run: as §1

[12] = molecular target: Fuc(a1-2)Gal6S(b1-4)Glc6S
How it was run: as §1

[13] = molecular target: Fuc(a1-2)Gal6S(b1-4)GlcNAc
How it was run: as §1

Fuc(a1-2)GlcNAc = molecular target: Fuc(a1-2)GlcNAc
How it was run: as §1

Fuc(a1-2)[Gal(a1-3)]Gal = molecular target: Fuc(a1-2)[Gal(a1-3)]Gal
How it was run: as §1

[14] = molecular target: Fuc(a1-2)[Gal(a1-3)]Gal(b1-3)GlcNAc
How it was run: as §1

[15] = molecular target: Fuc(a1-2)[Gal(a1-3)]Gal(b1-4)Glc
How it was run: as §1

[16] = molecular target: Fuc(a1-2)[Gal(a1-3)]Gal(b1-4)GlcNAc
How it was run: as §1

[17] = molecular target: Fuc(a1-2)[Gal(a1-3)]Gal(b1-4)[Fuc(a1-3)]GlcNAc
How it was run: as §1

[18] = molecular target: Fuc(a1-2)[Gal(a1-4)]Gal(b1-4)GalNAc
How it was run: as §1

[19] = molecular target: Fuc(a1-2)[GalNAc(a1-3)]Gal
How it was run: as §1

[20] = molecular target: Fuc(a1-2)[GalNAc(a1-3)]Gal(b1-3)GlcNAc
How it was run: as §1

[21] = molecular target: Fuc(a1-2)[GalNAc(a1-3)]Gal(b1-4)Glc
How it was run: as §1

[22] = molecular target: Fuc(a1-2)[GalNAc(a1-3)]Gal(b1-4)GlcNAc
How it was run: as §1

[23] = molecular target: Fuc(a1-2)[GalNAc(a1-3)]Gal(b1-4)[Fuc(a1-3)]GlcNAc
How it was run: as §1

[24] = molecular target: Fuc(a1-2)[GalNAc(a1-4)]Gal(b1-4)GlcNAc
How it was run: as §1

Fuc(a1-3)GlcNAc = molecular target: Fuc(a1-3)GlcNAc
How it was run: as §1

[25] = molecular target: Fuc(a1-3)[Gal(b1-4)]Glc6S
How it was run: as §1

[26] = molecular target: Fuc(a1-3)[Gal(b1-4)]GlcNAc
How it was run: as §1

[27] = molecular target: Fuc(a1-3)[Gal(b1-4)]GlcNAc(b1-3)Gal(b1-3)[Fuc(a1-4)]GlcNAc
How it was run: as §1

[28] = molecular target: Fuc(a1-3)[Gal(b1-4)]GlcNAc(b1-4)Gal(b1-4)[Fuc(a1-3)]GlcNAc
How it was run: as §1

[29] = molecular target: Fuc(a1-3)[Gal(b1-4)]GlcNAc(b1-4)Gal(b1-4)[Fuc(a1-3)]GlcNAc(b1-4)Gal(b1-4)[Fuc(a1-3)]GlcNAc
How it was run: as §1

[30] = molecular target: Fuc(a1-3)[Gal(b1-4)]GlcNAc6S
How it was run: as §1

[31] = molecular target: Fuc(a1-3)[Gal3S(b1-4)]Glc
How it was run: as §1

[32] = molecular target: Fuc(a1-3)[Gal3S(b1-4)]Glc6S
How it was run: as §1

[33] = molecular target: Fuc(a1-3)[Gal3S(b1-4)]GlcNAc
How it was run: as §1

[34] = molecular target: Fuc(a1-3)[Gal3S(b1-4)]GlcNAc6S
How it was run: as §1

[35] = molecular target: Fuc(a1-3)[GalNAc(b1-4)]Gal(b1-4)GlcNAc
How it was run: as §1

Fuc(a1-4)GlcNAc = molecular target: Fuc(a1-4)GlcNAc
How it was run: as §1

B1: C-Reactive Protein (Homo sapiens), P02741 (protein)
chain: MEKLLCFLVLTSLSHAFGQTDMSRKAFVFPKESDTSYVSLKAPLTKPLKAFTVCLHFYTELSSTRGYSIFSYATKRQDNEILIFWSKDIGYSFTVGGSEILFEVPEVTVAPVHICTSWESASGIVEFWVDGKPRVRKSLKKGYTVGAEASIILGQEQDSFGGNFEGSQSLVGDIGNVNMWDFVLSPDEINTIYLGGPFSPNVLNWRALKYEVQGEVFTKPQLWP
glycan array binding signal (z-score) (Fuc(a1-2)Gal): 0.139
glycan array binding signal (z-score) (Fuc(a1-2)Gal(b1-3)GalNAc): -0.571
glycan array binding signal (z-score) [1]: -0.638
glycan array binding signal (z-score) [2]: -0.492
glycan array binding signal (z-score) [3]: -0.059
glycan array binding signal (z-score) [4]: -0.235
glycan array binding signal (z-score) [5]: -0.56
glycan array binding signal (z-score) (Fuc(a1-2)Gal(b1-4)Glc): -0.518
glycan array binding signal (z-score) (Fuc(a1-2)Gal(b1-4)Glc6S): 0.027
glycan array binding signal (z-score) (Fuc(a1-2)Gal(b1-4)GlcNAc): -0.488
glycan array binding signal (z-score) [6]: -0.743
glycan array binding signal (z-score) [7]: -0.049
glycan array binding signal (z-score) [8]: 1.17
glycan array binding signal (z-score) [9]: -0.458
glycan array binding signal (z-score) [10]: -0.266
glycan array binding signal (z-score) [11]: -0.159
glycan array binding signal (z-score) (Fuc(a1-2)Gal6S(b1-4)Glc): 1.25
glycan array binding signal (z-score) [12]: 0.157
glycan array binding signal (z-score) [13]: -0.564
glycan array binding signal (z-score) (Fuc(a1-2)GlcNAc): 0.53
glycan array binding signal (z-score) (Fuc(a1-2)[Gal(a1-3)]Gal): -0.584
glycan array binding signal (z-score) [14]: -0.507
glycan array binding signal (z-score) [15]: -0.462
glycan array binding signal (z-score) [16]: -0.639
glycan array binding signal (z-score) [17]: -0.585
glycan array binding signal (z-score) [18]: -0.505
glycan array binding signal (z-score) [19]: -0.649
glycan array binding signal (z-score) [20]: -0.35
glycan array binding signal (z-score) [21]: -0.542
glycan array binding signal (z-score) [22]: -0.489
glycan array binding signal (z-score) [23]: -0.576
glycan array binding signal (z-score) [24]: -0.792
glycan array binding signal (z-score) (Fuc(a1-3)GlcNAc): -0.496
glycan array binding signal (z-score) [25]: 1.22
glycan array binding signal (z-score) [26]: -0.622
glycan array binding signal (z-score) [27]: -0.037
glycan array binding signal (z-score) [28]: 0.041
glycan array binding signal (z-score) [29]: -0.517
glycan array binding signal (z-score) [30]: 1.01
glycan array binding signal (z-score) [31]: 0.735
glycan array binding signal (z-score) [32]: 0.393
glycan array binding signal (z-score) [33]: 0.356
glycan array binding signal (z-score) [34]: 0.1
glycan array binding signal (z-score) [35]: -0.478
glycan array binding signal (z-score) (Fuc(a1-4)GlcNAc): -0.262

— the supplement of paper PMC8728848
